Data set [1] deals with MBP-OsERF120. The data set can be described thus: EMSA. As to conditions: LightShift Chemiluminescent EMSA Kit (Thermo 20148); binding buffer, pH and temperature not stated; annealing in 100 mM NaCl, 1 mM EDTA, 10 mM Tris-HCl pH 7.5; recombinant protein; protein details: N-terminal MBP (pMAL-C4X); label: 5' biotin. On the technique in general: In EMSA bound probe runs differently from free probe, usually more slowly.

For data set [2], the system named is MBP-OsERF120. The data set can be described thus: competition with a labelled probe. As to conditions: unlabeled competitor at 20x, 40x, 80x, signal gradually decreased; LightShift Chemiluminescent EMSA Kit (Thermo 20148); binding buffer, pH and temperature not stated; annealing in 100 mM NaCl, 1 mM EDTA, 10 mM Tris-HCl pH 7.5; recombinant protein; protein details: N-terminal MBP (pMAL-C4X).

The exact form of at least one protein or probe is not confirmed. For some assays here: The comparison behind a weaker result is the experiment's own reference, which may not be listed here. For some assays here: At least one verdict was read from the data and is not stated in words by the source.

Take “TGATTAATTAGAAAGAACTTAATTAGTAG (double strand) [mutant probe 3]”: in data set [1], the binding result is “binds more weakly”. As for “TGATTAATTAGAACGACCTTAATTAGTAG (double strand) [mutant probe 1]”, the binding result in data set [1] is on record as “binds more weakly”.

For the sequence “TGATTAATTAGAAAGACCTTAATTAGTAG (double strand) [mutant probe 2]”, the binding result in data set [1] is on record as “binds more weakly”. As for “TGATTAATTAGACCGACCTTAATTAGTAG (double strand) [OsMST6 promoter probe]”, the binding result in data set [1] is recorded as “binds”. In the case of “TGATTAATTAGACCGACCTTAATTAGTAG (double strand) [unlabeled competitor probe]”, in data set [2], the binding result was “binds”.

For the origin of these results see PMC12351161.
